No constants are given. Whether binding was seen depends on the method and setting.
Biological target: fluorescent ISG15 (UniProt P05161)
Assay: fluorescence polarisation; both purified

Protein sequences, listed by entry. Tags and fused reporters are not part of them. Lines headed by an entry give the natural chain unless they say otherwise; changes in a name come on top. Chains listed by the source or under a name are the forms on record and can include a tag or linker.
fluorescent ISG15 (P05161, form named): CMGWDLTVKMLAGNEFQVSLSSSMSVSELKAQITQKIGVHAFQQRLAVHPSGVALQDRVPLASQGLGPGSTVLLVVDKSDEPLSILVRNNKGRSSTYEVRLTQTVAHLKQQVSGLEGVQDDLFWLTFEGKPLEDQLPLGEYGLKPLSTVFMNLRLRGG

B1: NS1B AA mutant (W36A/Q37A) (protein, UniProt P03502 1-281)
chain: MADNMTTTQIEVGPGATNATINFEAGILECYERFSAARALDYPGQDRLHRLKRKLESRIKTHNKSEPENKRMSLEERKAIGVKMMKVLLFMDPSAGIEGFEPYCVKNPSTSKCPNYDWTDYPPTPGKYLDDIEEEPENVDHPIEVVLRDMNNKDARQKIKDEVNTQKEGKFRLTIKRDIRNVLSLRVLVNGTFLKHPNGDKSLSTLHRLNAYDQNGGLVAKLVATDDRTVEDEKDGHRILNSLFERFDEGHSKPIRAAETAVGVLSQFGQEHRLSPEEGDN
binding: no binding
